{
  "sequences": {"note": "By UniProt entry, the sequences of proteins in these tests, tags left out.", "UniProt P03521": "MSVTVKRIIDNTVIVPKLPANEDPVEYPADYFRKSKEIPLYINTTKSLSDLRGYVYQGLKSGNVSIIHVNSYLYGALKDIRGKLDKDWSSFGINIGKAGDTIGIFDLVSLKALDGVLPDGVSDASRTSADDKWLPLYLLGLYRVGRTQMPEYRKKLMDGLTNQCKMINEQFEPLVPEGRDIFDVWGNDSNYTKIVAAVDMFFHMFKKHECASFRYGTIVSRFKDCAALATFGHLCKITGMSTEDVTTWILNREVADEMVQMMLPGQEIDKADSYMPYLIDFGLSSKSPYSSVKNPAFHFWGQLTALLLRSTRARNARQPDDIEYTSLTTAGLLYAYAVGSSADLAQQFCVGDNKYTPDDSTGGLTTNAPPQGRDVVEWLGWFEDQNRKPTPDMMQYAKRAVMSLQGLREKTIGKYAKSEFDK"},
  "source": "paper PMC7077221",
  "binders": {"B1": {"name": "HA-tagged tripartite motif protein 41 (TRIM41-HA) (enzyme, UniProt Q8WV44 1-630)", "chain": "MAAVAMTPNPVQTLQEEAVCAICLDYFTDPVSIGCGHNFCRVCVTQLWGGEDEEDRDELDREEEEEDGEEEEVEAVGAGAGWDTPMRDEDYEGDMEEEVEEEEEGVFWTSGMSRSSWDNMDYVWEEEDEEEDLDYYLGDMEEEDLRGEDEEDEEEVLEEVEEEDLDPVTPLPPPPAPRRCFTCPQCRKSFPRRSFRPNLQLANMVQVIRQMHPTPGRGSRVTDQGICPKHQEALKLFCEVDEEAICVVCRESRSHKQHSVVPLEEVVQEYKAKLQGHVEPLRKHLEAVQKMKAKEERRVTELKSQMKSELAAVASEFGRLTRFLAEEQAGLERRLREMHEAQLGRAGAAASRLAEQAAQLSRLLAEAQERSQQGGLRLLQDIKETFNRCEEVQLQPPEVWSPDPCQPHSHDFLTDAIVRKMSRMFCQAARVDLTLDPDTAHPALMLSPDRRGVRLAERRQEVADHPKRFSADCCVLGAQGFRSGRHYWEVEVGGRRGWAVGAARESTHHKEKVGPGGSSVGSGDASSSRHHHRRRRLHLPQQPLLQREVWCVGTNGKRYQAQSSTEQTLLSPSEKPRRFGVYLDYEAGRLGFYNAETLAHVHTFSAAFLGERVFPFFRVLSKGTRIKLCP"}},
  "biological_target": "FLAG-tagged nucleoprotein (N) of vesicular stomatitis virus (VSV-N-FLAG) (vesicular stomatitis virus (VSV)) (UniProt P03521)",
  "assay": "co-IP",
  "note": "No constants are given. Whether binding was seen depends on the method and setting. Binding seen in cells or lysates may run through a third protein. Some entries that bind do so weakly or less than the wild type. Where a sequence is shown, tags or fusion partners need not be part of it.",
  "data": [
    {"binder": "B1", "values": [
      {"measurement": "binding", "value": "binds"}
    ]}
  ]
}
